From PubChem BioAssay AID1487 (National Center for Advancing Translational Sciences (NCATS), 2009)
The other results are listed elsewhere or left out. Further columns of the screen follow, without active or inactive calls. Most of these compounds were active or inconclusive in the main read-out, so they are no random draw. Potencies come from curve fits of mixed quality, noted in brackets.

Assay: qHTS Assay for Modulators of Lamin A Splicing
Conditions: HeLa LMNA splicing GFP/RFP minigene ratio, 48 h
How it was run: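 S3 HeLa cells stably expressing lamin A-EGFP splicing minigene plus DsRed2, 600 cells/well, 48 h compound exposure at 37C. Laser-scanning cytometry; analysed as GFP (500-530 nm)/RFP (575-640 nm) total intensity ratio; 0.5% DMSO vehicle.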

[1] = measured here: GFP splicing reporter channel
[2] = measured here: RFP viability control channel

Row | SMILES | AC50 [1] | AC50 [2]
1 | CN(C)S(=O)(=O)c1ccc2[nH]cc(/C=C/c3nc4ccccc4c(=O)n3-c3ccccc3)c2c1 | 35.5 µM [falling, single point] | 22.4 µM [falling, partial curve]
2 | COc1ccc(NC(=O)CSc2ncccc2C(=O)OC(C)C)cc1OC |  | 8.91 µM [rising, partial curve]
3 | COc1cccc(NS(=O)(=O)c2ccc(-c3cc(C)no3)s2)c1 |  | 12.6 µM [rising, single point]
4 | CCC(c1nnnn1Cc1ccccc1)N(Cc1ccco1)Cc1cc2cc(OC)ccc2[nH]c1=O (configuration not stated) | 22.4 µM [falling, partial curve, poor fit] | 20 µM [falling, partial curve]
5 | COc1ccccc1Cn1c(=S)[nH]c2cc(C(=O)NCCN3CCOCC3)ccc2c1=O |  | 6.31 µM [rising, partial curve, poor fit]
6 | CCOc1ccccc1N(C(C)=O)S(=O)(=O)c1ccc(Cl)cc1 |  | 35.5 µM [rising, single point]
7 | Cc1ccccc1-c1nc(-c2ccc(NC(=O)c3ccc4c(c3)OCO4)cc2)no1 |  | 0.631 µM [rising, full curve]
8 | CCn1cc(C(=O)NNC(=O)c2ccc(Cl)cc2)c(=O)c2ccc(C)nc21 |  | 11.2 µM [rising, single point]
9 | Cc1ccc(-c2nc(SCC(=O)NCc3ccco3)c3c(=O)n(C)c(=O)n(C)c3n2)cc1 |  | 15.8 µM [rising, single point]
10 | CCCc1nc2ccccc2c(=O)n1/N=C/c1ccc(O)cc1 |  | 15.8 µM [rising, partial curve]
11 | O=C(O)C1C2CCC(O2)C1C(=O)Nc1ccc(F)cc1 (configuration not stated) | 35.5 µM [rising, single point] | 14.1 µM [rising, partial curve, poor fit]
12 | CCCN(CCC)S(=O)(=O)c1ccc(C(=O)N2CC3CCC(CC3)C2)cc1 | 3.98 µM [falling, partial curve] | 25.1 µM [falling, partial curve]
13 | O=S(=O)(c1ccc(Oc2ncnc3scc(-c4ccccc4)c23)cc1)N1CCOCC1 | 10 µM [rising, partial curve] | 15.8 µM [rising, single point]
14 | N#Cc1cccc(C#N)c1N1CCC(C#N)CC1 | 6.31 µM [rising, partial curve, poor fit] | 
15 | COC(=O)c1cnc(N2CCN(c3ccccc3F)CC2)c2ccccc12 | 0.0224 µM [rising, full curve, poor fit] | 
16 | O=C(NCc1ccc(F)cc1)c1ccccc1OCc1ccccc1 | 11.2 µM [rising, partial curve] | 17.8 µM [rising, partial curve]
17 | Cn1c(=O)nc2n(Cc3ccccc3)c3ccccc3cc-2c1=O |  | 11.2 µM [falling, partial curve, poor fit]
18 | C/C(CC(=O)Nc1cc(Cl)ccc1Cl)=N\NC(N)=S |  | 35.5 µM [falling, single point]
19 | COc1ccc(OC)c(NC(=O)c2c(NCc3cccs3)sc3c2CCCC3)c1 | 12.6 µM [falling, partial curve] | 
20 | CCn1ncc(Cl)c1C(=O)NC(=S)Nc1c(C)cc(C)cc1[N+](=O)[O-] | 12.6 µM [rising, single point] | 31.6 µM [rising, single point]
21 | CCC(OC(=O)c1nsc(Cl)c1Cl)C(=O)NC(C)(C)CC (configuration not stated) | 0.282 µM [falling, full curve, poor fit] | 
22 | CCCOC(=O)Nc1sc2c(c1C(N)=O)CCCC2 | 0.0708 µM [falling, full curve, poor fit] | 6.31 µM [falling, partial curve, poor fit]
23 | Cc1cccc(OCc2nnc(SCC(=O)Nc3cccc(C(=O)N4CCOCC4)c3)n2C)c1C | 11.2 µM [rising, partial curve] | 17.8 µM [rising, single point]
24 | O=C(Cn1c(-c2cccs2)cc2ccccc21)NCCc1ccc(Cl)cc1 | 10 µM [rising, partial curve] | 10 µM [rising, partial curve]
25 | COc1ccccc1N1CCN(C(=O)CN(Cc2ccc(Cl)cc2)S(C)(=O)=O)CC1 |  | 15.8 µM [rising, single point]
26 | COc1cccc(NC(=O)Cn2c(CCC(=O)O)ccc2-c2ccc(Cl)cc2)c1 |  | 0.0355 µM [falling, full curve]
27 | Cc1ccc(CNS(=O)(=O)c2cc3c(cc2C)NC(=O)CO3)cc1 |  | 35.5 µM [falling, partial curve, poor fit]

A portion from further up:
Row | SMILES | AC50 [1] | AC50 [2]
23 | Cc1cccc(OCc2nnc(SCC(=O)Nc3cccc(C(=O)N4CCOCC4)c3)n2C)c1C | 11.2 µM [rising, partial curve] | 17.8 µM [rising, single point]
24 | O=C(Cn1c(-c2cccs2)cc2ccccc21)NCCc1ccc(Cl)cc1 | 10 µM [rising, partial curve] | 10 µM [rising, partial curve]
25 | COc1ccccc1N1CCN(C(=O)CN(Cc2ccc(Cl)cc2)S(C)(=O)=O)CC1 |  | 15.8 µM [rising, single point]
26 | COc1cccc(NC(=O)Cn2c(CCC(=O)O)ccc2-c2ccc(Cl)cc2)c1 |  | 0.0355 µM [falling, full curve]

Later entries

Row | SMILES | AC50 [1] | AC50 [2]
28 | Cc1ccc(C)c(N2CCN(C(=O)c3csc(C)c3C)CC2)c1 | 35.5 µM [rising, single point] | 35.5 µM [rising, single point]
29 | Cc1cncn1CCc1nc2c3ccccc3nc(SCC(=O)Nc3cccc(Cl)c3)n2n1 |  | 11.2 µM [rising, partial curve]
30 | Cc1ccc(NC(=O)CN2C(=O)NC(Cc3c[nH]c4ccccc34)C2=O)cc1S(=O)(=O)N1CCCCC1 (configuration not stated) | 25.1 µM [rising, single point] | 28.2 µM [rising, single point]
31 | COc1ccc(C2=Nn3c(nnc3-c3ccccc3OC)SC2)cc1OC | 1.41 µM [falling, full curve] | 1.58 µM [falling, full curve]
32 | COc1ccc(NC(=O)Cn2nnc(-c3ccccc3NS(=O)(=O)c3ccccc3)n2)cc1 |  | 2.82 µM [rising, partial curve, poor fit]
33 | CN(C)c1ccc(/C=C2\SC(=O)N(CC(O)Cn3c4ccccc4c4ccccc43)C2=O)cc1 (configuration not stated) |  | 3.98 µM [rising, full curve, poor fit]
34 | COc1ccc(N2CCN(Cc3nc(-c4ccc(Cl)cc4Cl)no3)CC2)cc1 |  | 15.8 µM [rising, partial curve, poor fit]
35 | Cc1ccc(OCC(=O)N(c2ccccn2)C2CCCCC2)c(C)c1 |  | 12.6 µM [rising, partial curve]
36 | c1ncc(-c2ccc3c(c2)OCO3)c(NCCc2cnc[nH]2)n1 | 8.91 µM [falling, partial curve, poor fit] | 0.891 µM [falling, partial curve]
37 | Cc1nc2sc3c(NCc4ccco4)ncnc3c2c2c1COC(C)(C)C2 | 17.8 µM [rising, partial curve] | 20 µM [rising, partial curve]
38 | CCOc1cccc(CNc2ccc(O)cc2)c1OCc1ccc(Cl)cc1Cl | 17.8 µM [rising, single point] | 31.6 µM [rising, single point]
39 | Cc1cccc2sc(NC(=O)CN(C)S(=O)(=O)c3ccc(Br)s3)nc12 | 15.8 µM [rising, partial curve] | 20 µM [rising, single point]
40 | Cc1ccc(Oc2ccc(NC(=O)CSc3n[nH]c(N)n3)cc2)cc1 | 15.8 µM [rising, partial curve] | 31.6 µM [rising, single point]
41 | COc1ccccc1NC(=O)c1cnc(SCC(=O)N2CCCc3ccccc32)n(C)c1=O | 6.31 µM [falling, partial curve, poor fit] | 3.98 µM [falling, single point]
42 | Cc1cccc(-c2nc(CSc3nc4c(c(=O)[nH]3)CCC4)c(C)o2)c1 | 0.00562 µM [rising, full curve, poor fit] | 
43 | Cc1cc(C)nc(SCC(=O)Nc2ccc(S(=O)(=O)N3CCCCC3)cc2)n1 |  | 11.2 µM [rising, single point]
44 | CC1=C(C)/C(=N/OC(=O)c2cccc([N+](=O)[O-])c2)C=CC1=O | 35.5 µM [falling, single point] | 35.5 µM [falling, single point]
45 | CC(=O)c1ccc(-c2cccs2)s1 | 0.316 µM [rising, partial curve, poor fit] | 1.78 µM [rising, partial curve]
46 | CCOc1ccc(-c2csc(NC(=O)C3CCCO3)n2)cc1 (configuration not stated) |  | 5.62 µM [rising, partial curve]
47 | CCOC(=O)C1=C(O)c2ccccc2C(=O)/C1=C\c1ccc(CC)cc1 | 14.1 µM [falling, single point] | 5.62 µM [rising, full curve, poor fit]
48 | COC(=O)CS(=O)(=O)c1nnc([C@H](Cc2ccccc2)NC(=O)OC(C)(C)C)o1 |  | 11.2 µM [rising, partial curve, poor fit]
49 | CC(=O)Nc1ccc(Nc2cc(C)nc3c(-c4ccc(Cl)cc4)cnn23)cc1 |  | 35.5 µM [rising, single point]
50 | CCCCC(=O)N(CCOC)c1nnc(-c2ccccc2C)s1 |  | 0.00631 µM [falling, full curve, poor fit]
51 | CCc1cc2cc(C)ccc2nc1SCC(=O)N1CCN(C(=O)c2ccco2)CC1 | 31.6 µM [rising, single point] | 35.5 µM [rising, single point]
52 | O=C(NC(=S)NCc1ccc(F)cc1)c1ccccc1 | 35.5 µM [rising, single point] | 35.5 µM [rising, single point]
53 | CCOC(=O)c1c(OCCO)nn(-c2ccccc2)c1N |  | 5.01 µM [falling, full curve, poor fit]
